Experimental data from PMC6745524, “Diverse roles of TssA‐like proteins in the assembly of bacterial type VI secretion systems” (The EMBO Journal, 2019).

Protein sequences, listed by entry. Tags and fused reporters are not part of them. Lines headed by an entry give the natural chain unless they say otherwise; changes in a name come on top.
UniProt Q9KN49: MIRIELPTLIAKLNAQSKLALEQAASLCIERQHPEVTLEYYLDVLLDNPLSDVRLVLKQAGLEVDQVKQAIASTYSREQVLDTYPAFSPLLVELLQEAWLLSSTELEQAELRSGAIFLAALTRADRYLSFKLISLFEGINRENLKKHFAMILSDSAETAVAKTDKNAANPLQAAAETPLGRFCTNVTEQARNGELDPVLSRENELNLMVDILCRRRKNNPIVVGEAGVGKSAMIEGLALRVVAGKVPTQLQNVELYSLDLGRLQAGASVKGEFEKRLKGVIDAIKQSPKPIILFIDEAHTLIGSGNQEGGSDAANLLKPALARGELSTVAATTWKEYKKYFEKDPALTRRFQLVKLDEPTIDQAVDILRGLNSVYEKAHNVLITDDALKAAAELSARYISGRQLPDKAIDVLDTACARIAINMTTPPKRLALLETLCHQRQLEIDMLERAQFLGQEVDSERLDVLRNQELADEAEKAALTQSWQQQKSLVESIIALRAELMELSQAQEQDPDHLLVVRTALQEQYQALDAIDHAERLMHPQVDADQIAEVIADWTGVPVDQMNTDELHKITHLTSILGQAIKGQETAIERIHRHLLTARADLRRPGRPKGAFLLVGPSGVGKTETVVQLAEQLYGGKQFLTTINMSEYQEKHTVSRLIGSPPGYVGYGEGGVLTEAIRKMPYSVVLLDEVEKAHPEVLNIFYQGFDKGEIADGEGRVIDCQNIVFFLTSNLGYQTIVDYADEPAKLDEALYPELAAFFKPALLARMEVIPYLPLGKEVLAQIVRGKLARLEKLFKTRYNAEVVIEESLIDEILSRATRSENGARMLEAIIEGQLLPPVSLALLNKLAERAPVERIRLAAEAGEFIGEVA
UniProt Q9KN44: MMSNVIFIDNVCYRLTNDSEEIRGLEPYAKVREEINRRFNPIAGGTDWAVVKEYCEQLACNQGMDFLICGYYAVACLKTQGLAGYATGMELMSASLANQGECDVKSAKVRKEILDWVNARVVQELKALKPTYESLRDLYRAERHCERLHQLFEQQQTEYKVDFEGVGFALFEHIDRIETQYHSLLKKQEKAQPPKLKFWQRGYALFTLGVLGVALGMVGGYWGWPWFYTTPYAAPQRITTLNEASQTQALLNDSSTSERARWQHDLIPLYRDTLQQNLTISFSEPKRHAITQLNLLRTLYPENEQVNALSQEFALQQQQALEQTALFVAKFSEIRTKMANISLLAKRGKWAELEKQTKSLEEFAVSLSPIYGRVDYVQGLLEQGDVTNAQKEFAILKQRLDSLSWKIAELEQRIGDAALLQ

B1: Hcp, tested in the pull-down (protein, UniProt P72350 1-172)
chain: MPTPCYISIEGQTQGLITAGACTADSIGDSFVEGHEDEMLVQQFDHVVTVPTDPQSGQPSGQRVHKPFKFTVALNKAVPLLYNALSSGEKLKTVELKWYRTSIEGKQENFFTTKLENASIVDIHCEMPHCQDPAKSDFTQNVTVSLSYRKITWDHVNAGTSGSDDWRKPIEA

Target: T1, TssAVC, hemagglutinin (HA)-tagged bait (Vibrio cholerae) (UniProt Q9KN46)
T1 sequence: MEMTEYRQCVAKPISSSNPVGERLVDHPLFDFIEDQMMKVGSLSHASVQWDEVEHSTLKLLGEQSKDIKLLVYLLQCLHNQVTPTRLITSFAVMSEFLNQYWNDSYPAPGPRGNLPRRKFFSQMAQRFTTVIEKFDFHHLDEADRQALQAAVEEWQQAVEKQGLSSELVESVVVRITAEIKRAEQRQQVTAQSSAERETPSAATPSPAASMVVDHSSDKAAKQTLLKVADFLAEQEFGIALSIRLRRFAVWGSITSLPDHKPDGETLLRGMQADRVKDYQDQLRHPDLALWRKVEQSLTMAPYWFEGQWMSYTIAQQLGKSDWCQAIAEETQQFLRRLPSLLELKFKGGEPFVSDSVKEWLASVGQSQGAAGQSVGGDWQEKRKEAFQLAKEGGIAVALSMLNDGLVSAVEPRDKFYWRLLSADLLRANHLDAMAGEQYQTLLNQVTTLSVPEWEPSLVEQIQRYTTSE
Test: affinity purification with mass spectrometry

Question: With “ClpV, found in the pull-downs (from UniProt Q9KN49)” as the molecule, how does the binding read?
Answer: The binding was “binds”.

Question: With “TagAVC, found in the pull-down with TssAVC-HA (from UniProt Q9KN44)” as the molecule, how does the binding read?
Answer: Its binding is “binds”.

Question: With B1 as the molecule, how does the binding read?
Answer: Its binding is “no binding”.

No constants are given. Whether binding was seen depends on the method and setting. In cells and extracts the contact can be indirect. These calls come from enrichment with a bait or labelling near it, and not all partners need be listed. A no says only that the protein was not detected with the bait. Where a sequence is shown, tags or fusion partners need not be part of it.
